Results reported in publication doi:10.1101/2021.03.22.436362.
Where a chain is given by its changes, count along the chain named. Numbers in names are those of the source. Results are given in words; binding and its absence hold for the method and conditions named. Binding seen in cells or lysates may run through a third protein. Binding calls can cover weak binding; strength is not graded here. For part of these data: Where a sequence is shown, tags or fusion partners need not be part of it.

B1: α1-COP:Venus-C (protein, UniProt Q94A40 1-1216)
chain: MLTKFETKSNRVKGLSFHPKRPWILASLHSGVIQLWDYRMGTLIDRFDEHEGPVRGVHFHNSQPLFVSGGDDYKIKVWNYKNHRCLFTLLGHLDYIRTVQFHHEYPWIVSASDDQTIRIWNWQSRTCVSVLTGHNHYVMCASFHPKEDLVVSASLDQTVRVWDIGALRKKTVSPADDIMRLTQMNSDLFGGVDAIVKYVLEGHDRGVNWAAFHPTLPLIVSGADDRQVKLWRMNETKAWEVDTLRGHMNNVSSVMFHAKQDIIVSNSEDKSIRVWDATKRTGLQTFRREHDRFWILAVHPEMNLLAAGHDSGMIVFKLERERPAFALSGDSLFYAKDRFLRYYEYSTQRDSQVIPIRRPGTPSLNQSPRTLSYSPTENAVLICSDLDGGSYELYIIPKDSVGRSDVVQDAKRGTGGSAVFIARNRFAVLEKSTSQVLVKNLKNEVVKKSPLPIPTDAIFYAGTGNLLCRSEDKVVIFDLQQRLVLGELQTPFVRYVVWSSDMESVALLSKHTIIIASKKLVLQCTLHETIRVKSGAWDDNGVFIYTTLNHIKYCLPNGDSGIIRTLDVPIYITKVSGNTIFCLDRDGKNKAITINATEYIFKLSLLRKRYDHVMSMIKNSQLCGQAMIAYLQQKGFPEVALHFVEDERIRFNLALESGNISVAVASATQINEKDHWYRLGVEALRQGNSGIVEFAYQQTKNFERLSFLYLITGNLDKLSKLMKIAEVKNNVMGQFHNALYLGDVKERVKILENAGHLPLAYITASVHGLNDIAERLATELGDNVPSLPEGKTPSLLMPPTPIMCGGDWPLLRVMKGIFEGGLESADRGGTVDEEDVEGDWGEELDINVDGMENRDIEDILAAAEAGEEENDEEGGWGLEDLVLPPELDTPKASANARSSVFVTPPQGMPVSQSWSQKSSLAAEQAAAGSFDTAMRLLHRQLGIKNFTPLKSMFLDLFNGSHSYLRAFSSCPVVPLAIERGWSESSSPNVRSPPALVYDFSQLDEKLKSGYKATTTGKFTEALRLFLSILHTIPLVVVETRREVDEVKELIVIVKEYVLGLQMELKRREMKDDPVRQQELAAYFTHCNLQTPHLRLALLSAMGVCYKAKNLATASNFARRLLETSPVDSQAKMARQVVQAAERNMTDETKLNYDFRNPFVVCGSTYVPIYRGQKDVSCPYCTARFVPNQEGNICTVCDLAVIGADASGLLCSPSQVR
B2: GFP:α1-COP (protein, UniProt Q94A40 1-1216)
chain: B1 chain
B3: α1-COP^G486D:cVenus (protein, UniProt Q94A40 1-1216)
chain: B1 chain with G486D
B4: GFP:α1-COP^G486D (protein, UniProt Q94A40 1-1216)
chain: B1 chain with G486D

Assays:
[1] = target: ε1-COP (BiFC fusion) (Arabidopsis thaliana); assay: split reporter
[2] = target: β’2-COP (BiFC fusion) (Arabidopsis thaliana); assay: split reporter
[3] = target: GCS:Venus-N (Arabidopsis thaliana); assay: split reporter
[4] = target: Myc:GCS (Arabidopsis thaliana); assay: co-IP

| Binder | binding [1] | binding [2] | binding [3] | binding [4] |
| --- | --- | --- | --- | --- |
| B1 | binds | binds | binds |  |
| B2 |  |  |  | binds |
| B3 |  |  | no binding |  |
| B4 |  |  |  | no binding |
